In experiment [1] the target is BD-bZIP63 with one of the C-terminal sites mutated to alanine (protoplast two-hybrid) (Arabidopsis thaliana) (UniProt B9DGI8). Nature of the experiment: two-hybrid; protoplast two-hybrid (P2H) in Arabidopsis leaf protoplasts; GAL4-AD and GAL4-BD fusions, GAL-UAS4::GUS reporter normalised to 35S::NAN; without and with co-transformation of AKIN10; 16 hr.
Experiment [2] addresses AKINβ2 (LexA-BD yeast two-hybrid fusion) (Arabidopsis thaliana). Nature of the experiment: two-hybrid; yeast strain L40; LexA-BD fusions (pBTM117) as baits, GAL4-AD-bZIP63 (pACTIIJ) as prey; lacZ reporter read with ONPG in cell extracts; auto-activation measured with empty pACTIIJ.

No constants are given. Whether binding was seen depends on the method and setting. Binding can be weak; no strength is given. Tags and fused reporters may be left off the sequences shown.

B1: bZIP11 (protoplast two-hybrid fusion) (protein, UniProt O65683 1-159)
chain: MESSSSGTTSSTIQTSSGSEESLMEQRKRKRMLSNRESARRSRMKKQKLLDDLTAQVNHLKKENTEIVTSVSITTQHYLTVEAENSVLRAQLDELNHRLQSLNDIIEFLDSSNNNNNNNMGMCSNPLVGLECDDFFVNQMNMSYIMNQPLMASSDALMY
B1: the binding result in experiment [1] is “binds”.

B2: bZIP63 (yeast two-hybrid fusion) (protein, UniProt B9DGI8 1-314)
chain: MEKVFSDEEISGNHHWSVNGMTSLNRSASEWAFNRFIQESSAAADDGESTTACGVSVSSPPNVPVDSEEYRAFLKSKLNLACAAVAMKRGTFIKPQDTSGRSDNGGANESEQASLASSKATPMMSSAITSGSELSGDEEEADGETNMNPTNVKRVKRMLSNRESARRSRRRKQAHLSELETQVSQLRVENSKLMKGLTDVTQTFNDASVENRVLKANIETLRAKVKMAEETVKRLTGFNPMFHNMPQIVSTVSLPSETSNSPDTTSSQVTTPEIISSGNKGKALIGCKMNRTASMRRVESLEHLQKRIRSVGDQ
Regarding B2, in experiment [2], the binding result is given as “binds weakly”.

B3: bZIP63 (protoplast two-hybrid fusion) (protein, UniProt B9DGI8 1-314)
chain: B2 chain
As for B3, the binding result in experiment [1] is recorded as “binds”.
